Data published in article PMC6773438.

Key:
[1] = biological target: T1, He Dsup (Hypsibius exemplaris (strain Z151)) (UniProt A0A1W0XB17); assay: EMSA; conditions: EMSA: 60 nM mononucleosomes, 25 mM Hepes-K+ pH 7.6, 0.1 mM EDTA, 10% glycerol, 100 mM KCl, 100 ng BSA in 15 uL, 30 C 30 min; H1 assays plus 0.05% NP-40 and 2 mM MgCl2; recombinant protein; residues 1-328; protein details: N-terminal His6, C-terminal FLAG
T1 sequence (looked up): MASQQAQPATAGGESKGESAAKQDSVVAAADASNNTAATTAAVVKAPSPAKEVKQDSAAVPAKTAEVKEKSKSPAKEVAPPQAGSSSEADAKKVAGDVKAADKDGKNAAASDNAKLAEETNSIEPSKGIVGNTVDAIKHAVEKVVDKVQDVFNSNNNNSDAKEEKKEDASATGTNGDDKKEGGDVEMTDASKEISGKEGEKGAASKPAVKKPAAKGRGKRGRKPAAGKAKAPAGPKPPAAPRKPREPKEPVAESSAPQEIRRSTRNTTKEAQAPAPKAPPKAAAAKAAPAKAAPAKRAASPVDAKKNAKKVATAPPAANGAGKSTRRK

[2] = biological target: T2, Rv Dsup (Ramazzottius varieornatus (strain YOKOZUNA-1)) (UniProt P0DOW4); assay: EMSA; conditions: no distinct shifted band; EMSA: 60 nM mononucleosomes, 25 mM Hepes-K+ pH 7.6, 0.1 mM EDTA, 10% glycerol, 100 mM KCl, 100 ng BSA in 15 uL, 30 C 30 min; H1 assays plus 0.05% NP-40 and 2 mM MgCl2; recombinant protein; residues 1-445; protein details: N-terminal His6, C-terminal FLAG
T2 sequence (looked up): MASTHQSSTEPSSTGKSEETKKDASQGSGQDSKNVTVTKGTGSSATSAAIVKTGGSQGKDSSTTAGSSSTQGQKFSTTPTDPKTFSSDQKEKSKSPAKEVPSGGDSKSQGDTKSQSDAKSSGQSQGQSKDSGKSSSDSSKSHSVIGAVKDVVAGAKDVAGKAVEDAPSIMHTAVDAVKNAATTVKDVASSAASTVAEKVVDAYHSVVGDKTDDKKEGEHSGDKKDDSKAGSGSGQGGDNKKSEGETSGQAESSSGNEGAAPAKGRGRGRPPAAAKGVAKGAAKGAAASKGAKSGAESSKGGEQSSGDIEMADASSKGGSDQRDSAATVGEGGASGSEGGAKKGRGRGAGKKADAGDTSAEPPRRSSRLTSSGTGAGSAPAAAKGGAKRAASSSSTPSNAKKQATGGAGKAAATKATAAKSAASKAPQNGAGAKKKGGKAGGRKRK

## GCTTGTTTTCCTGCCTGGGGGAAAAGACCCTGGCATGGGGAGGAGCTGGGCCCCCCCCAGAAGGCAGCACAAGGGGAGGAAAAGTCAGCCTTGTGCTCGCCTACGGCCATACCACCCTGAAAGTGCCCGATATCGTCTGATCTCGGA (double strand) [X. borealis 5S rDNA 147 bp free DNA]
[1]
  binding result: binds more weakly
[2]
  binding result: binds more weakly

A weaker result is weaker than the reference pair of the same experiment. Tags and fusion partners may be left off the protein sequences shown.
